Measurements reported in PubChem BioAssay AID1259308 (NCATS, 2017)

- Screen: 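Genes whose loss raises luciferase production in HEK293 cells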 (primary screen)
- Cells: human HEK293 embryonic kidney cells stably expressing firefly luciferase (HEK-CMV-Luc2-Hygro)
- Knock-down reagent: single siRNA against human genes, 0.8 pmol siRNA per well
- Time to read-out: 72 h
- Read-out: 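Reporter luminescence and viable-cell signal on separate replicate plates, given as percent of non-targeting control and median/MAD z-scores, plus per-cell luciferase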
- Scale: total luciferase, z-score: higher = more reporter protein produced
- Call rule: 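An siRNA counts as active if its total luciferase robust z-score exceeds 3; genes with two or more such siRNAs out of three were retested with fresh siRNAs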
- Calls: active = raised luciferase; inactive = no rise
The whole screen tested about 59,000 reagents; shown is an unselected part. In the full data, about 1,510 (2.6%) got an active call. 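Calls use total luciferase alone and ignore viability, so some active siRNAs may act by altering cell number.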 Unmarked entries are inactive. The numbers tell different reagents against one gene apart. Not all columns of the deposit are shown.

VCAM1 #1
- total luciferase, z-score: -0.204

VCAM1 #2
- total luciferase, z-score: 3.31 (active)

VCAM1 #3
- total luciferase, z-score: -0.339

PENK #1
- total luciferase, z-score: 0.592

PENK #2
- total luciferase, z-score: -1.32

PENK #3
- total luciferase, z-score: 0.246

Already shown: an excerpt of the list.
VCAM1 #1
- total luciferase, z-score: -0.204

VCAM1 #2
- total luciferase, z-score: 3.31 (active)

Additional records:
LGR4 #1
- total luciferase, z-score: 0.0201

LGR4 #2
- total luciferase, z-score: 0.21

LGR4 #3
- total luciferase, z-score: -0.075

BPIFB3 #1
- total luciferase, z-score: -0.361

BPIFB3 #2
- total luciferase, z-score: 1.26

BPIFB3 #3
- total luciferase, z-score: 0.713
